Experimental data reported in paper PMC7819943, “Rice protein-binding microarrays: a tool to detect cis-acting elements near promoter regions in rice”.
The list shows a part of the results.

Chains of the proteins cited; added tags and fusions are not shown.
UniProt Q0JBA9, entry or part of it: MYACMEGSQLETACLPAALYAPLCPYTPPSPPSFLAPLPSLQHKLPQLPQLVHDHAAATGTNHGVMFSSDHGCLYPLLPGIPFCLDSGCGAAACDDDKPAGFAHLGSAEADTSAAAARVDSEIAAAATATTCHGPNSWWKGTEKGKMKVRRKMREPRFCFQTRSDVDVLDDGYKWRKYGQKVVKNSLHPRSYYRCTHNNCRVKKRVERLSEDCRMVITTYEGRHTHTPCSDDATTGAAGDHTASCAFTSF

Biological target: OsWRKY34 (Oryza sativa, UniProt Q0JBA9 1-250)
Assay: protein-binding microarray (RPBM); PBS, 2% BSA, 51.3 ng/ul salmon testes DNA, 50 uM zinc acetate, 200 nM TF, 25 C, 1 h; high values mean tight binding
Conditions: protein: recombinant; tags: N-terminal polyhistidine and DsRed monomer fusion (pET32a); label: CyDye5-dUTP incorporated in the synthesized complementary strand; 3' TTTTT single-stranded linker to array surface; dsDNA, one strand shown
Outline: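 The binding signal for each feature is its fluorescence intensity in arbitrary units. An Axon 4000B scanner was used to read a custom Agilent array that had been made double-stranded with Cy5-dUTP primer extension, blocked with 2% BSA, incubated at 25 °C for 1 h with 200 nM protein in PBS, 2% BSA, salmon testes DNA and 50 µM zinc acetate, and washed. The protein was an N-terminal polyhistidine–DsRed transcription factor fusion from E. coli BL21-CodonPlus, purified on Ni–NTA.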

Sequence | binding signal
GCCTAGGCGCCGTTGTTTCGGACTAATTTTTTCTTCTCAACGGAGTCACCTAGTGCAG | 9390 fluorescence intensity (a.u.)
CACTGCACACGCCACTACTCTTTTTCCTTGTTGTGGCTCACGGAGTCACCTAGTGCAG | 10700 fluorescence intensity (a.u.)
ATGTCCACGTCGAACCCCACCGACCTCGCGAGCCGCGCCACGGAGTCACCTAGTGCAG | 9020 fluorescence intensity (a.u.)
TTGTAGTTTCTTTGTCAGGTTTTTCCTGTTTCTGTGGCTACGGAGTCACCTAGTGCAG | 10200 fluorescence intensity (a.u.)
TTCTTCAGCTTACTGGTTGTGTAGCTTCTTCTGGCTTTTCCGGAGTCACCTAGTGCAG | 12000 fluorescence intensity (a.u.)
GATCTTTATCCCGTTTAAGAACTGTCTTTTCATCACTTCACGGAGTCACCTAGTGCAG | 9100 fluorescence intensity (a.u.)
TAGACCTAAATAAGTCATTGCTATTTCTCTTGCTTCCATACGGAGTCACCTAGTGCAG | 8790 fluorescence intensity (a.u.)
GTGACATTCGACGATCTGGGCTCACGATACCACACACACTCGGAGTCACCTAGTGCAG | 9230 fluorescence intensity (a.u.)
ATGTATGACGCTGTTGACTTTGTAACCAATATTTGACCATCGGAGTCACCTAGTGCAG | 13400 fluorescence intensity (a.u.)
AACGATGACGACGTGTGCGCGCTGTTGTTTTTTTGTCCCACGGAGTCACCTAGTGCAG | 19700 fluorescence intensity (a.u.)
CCCGCTGTCAAGTATGCTACTTATGATTATCTCCTACTATCGGAGTCACCTAGTGCAG | 9060 fluorescence intensity (a.u.)
GAACAAACATTACTTACATAATGAGTTTCGTGTTGCGGGGCGGAGTCACCTAGTGCAG | 8680 fluorescence intensity (a.u.)
TCCGTCCTCGCCGTCGCCATCTCGGACAGCTACTAGCATGCGGAGTCACCTAGTGCAG | 8120 fluorescence intensity (a.u.)
CACTCCTGCTGCCGTCCAGTTGCAATTGCGTTTTCTCCTTCGGAGTCACCTAGTGCAG | 16700 fluorescence intensity (a.u.)
GTCCGTCCACTCACCCACGCCACCGCCACCGCCACGCATGCGGAGTCACCTAGTGCAG | 11000 fluorescence intensity (a.u.)
GCTGCCTAATTTTGTCCGAGATGTGCCCATCAAATCCAACCGGAGTCACCTAGTGCAG | 10600 fluorescence intensity (a.u.)
CATTGGTTGTATTCCTCTTTTCCATACTTAATATATTGGACGGAGTCACCTAGTGCAG | 11000 fluorescence intensity (a.u.)
GCATTTCGTGTTCCCTTTTTGCCTTTTTTTCCCCTTTTCTCGGAGTCACCTAGTGCAG | 10300 fluorescence intensity (a.u.)
CTTCCGCTTATGTTTTCACAAATTTCCAAAGTTTCCAATACGGAGTCACCTAGTGCAG | 8820 fluorescence intensity (a.u.)
GGCCTTACTCTTTTTGGTGGGCTTTCGCTTCGGACTCCGCCGGAGTCACCTAGTGCAG | 10100 fluorescence intensity (a.u.)
TGTTGCTGCTGCGGTGTGTGTGCTGGTGCTGCAGCTGCAGCGGAGTCACCTAGTGCAG | 10500 fluorescence intensity (a.u.)

Sequence | binding signal
CTACATGGGTATCTATAGCTCTCTAATCCATTGCCTCGTTCGGAGTCACCTAGTGCAG | 9390 fluorescence intensity (a.u.)
TGCAACGTGTCTTAAATCTTCCTATCTTCAGCTAGCCTACCGGAGTCACCTAGTGCAG | 8880 fluorescence intensity (a.u.)
AAAACGACGTCTTGCAACCTTCACGTGCCATGACACCAACCGGAGTCACCTAGTGCAG | 8090 fluorescence intensity (a.u.)
ACCATTCATTTCTATCTATTTTCTTAATAACTGTGTCTAACGGAGTCACCTAGTGCAG | 9260 fluorescence intensity (a.u.)
TTTTCTTCTCTCTTGCGCCATCAACCCCGCGTCCAACCCACGGAGTCACCTAGTGCAG | 8380 fluorescence intensity (a.u.)
CCCGTGTTTGTGTGTCTTTCTCAATTGCAAACTATCGTATCGGAGTCACCTAGTGCAG | 8990 fluorescence intensity (a.u.)
TCATCTCATAGTTTACAAGCGGAATCTATAATTTGTTTTGCGGAGTCACCTAGTGCAG | 8510 fluorescence intensity (a.u.)
TCCTGCCTTTATCTTGTTTCCTTTATCACTTCCATATCTGCGGAGTCACCTAGTGCAG | 14100 fluorescence intensity (a.u.)
CATATATAGTCTTTGTCATGTTATTCCCAAGACTTACTTCCGGAGTCACCTAGTGCAG | 10800 fluorescence intensity (a.u.)
CGCCCACTCTATCGTCTCGTCTCGTCTCTCCTCACTCCACCGGAGTCACCTAGTGCAG | 12400 fluorescence intensity (a.u.)
CCACCTGTCGCCGCCGATGCTCCTCCTCACCGGTGTCCACCGGAGTCACCTAGTGCAG | 12200 fluorescence intensity (a.u.)
ATCGGGACAGCGGGGTGACAACAATGACTACAACGACGGTCGGAGTCACCTAGTGCAG | 10900 fluorescence intensity (a.u.)
ATCCTGGTGCTTTGTTTGATCATCCCTCAGTCAGATCCATCGGAGTCACCTAGTGCAG | 9150 fluorescence intensity (a.u.)
TTACGACAACCCGCCATGTCTTTTTTTCCGCCATAAGTACCGGAGTCACCTAGTGCAG | 10500 fluorescence intensity (a.u.)
TTCGTCTTCCCCGTCGCATTTACGCTGCCGATCCGAGCGCCGGAGTCACCTAGTGCAG | 8560 fluorescence intensity (a.u.)
TGCTAACCCTGTTCCAGCTCAGCTCCATTGATGAACTACTCGGAGTCACCTAGTGCAG | 8020 fluorescence intensity (a.u.)
CGTGGCAACAACCTCGTCGTCGTTCTTGTTCTTGTTCTTGCGGAGTCACCTAGTGCAG | 11500 fluorescence intensity (a.u.)
GTAAAATAGGGGTTGGGTGTCGATAGCGGGAACAGTTGATCGGAGTCACCTAGTGCAG | 8340 fluorescence intensity (a.u.)
AGTTGGTGTATATGTTCTGTTCATGAACAATTTGGGATATCGGAGTCACCTAGTGCAG | 9290 fluorescence intensity (a.u.)
CTCAGGCACATGTCCACGGTCCACCACAAGCGAGGCCCAACGGAGTCACCTAGTGCAG | 8270 fluorescence intensity (a.u.)
TCTAGATTTATCCCCATTTTTGGCTGGGCCTTCTATTTAACGGAGTCACCTAGTGCAG | 8720 fluorescence intensity (a.u.)

Rewritten field by field: part of the list above
TTGTAGTTTCTTTGTCAGGTTTTTCCTGTTTCTGTGGCTACGGAGTCACCTAGTGCAG
  binding signal = 10200 fluorescence intensity (a.u.)
TTCTTCAGCTTACTGGTTGTGTAGCTTCTTCTGGCTTTTCCGGAGTCACCTAGTGCAG
  binding signal = 12000 fluorescence intensity (a.u.)
